The values below come from PMC9035715.

Sequences of proteins named here, by UniProt entry; tags and fusion partners are left off. Residues count along the entry.
UniProt Q9Y6K9, residues 241-419: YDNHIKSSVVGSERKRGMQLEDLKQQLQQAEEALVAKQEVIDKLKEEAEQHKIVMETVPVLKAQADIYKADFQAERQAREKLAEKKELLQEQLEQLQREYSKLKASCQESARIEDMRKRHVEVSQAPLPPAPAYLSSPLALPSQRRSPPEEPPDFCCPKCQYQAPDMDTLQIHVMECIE

For the assay, the target named is GST-NEMO^241–419 (human) (UniProt Q9Y6K9). In words: pull-down; purified GST-NEMO fusions mixed with purified IKK proteins in the presence of Ub4, 1 h at 4 °C, then glutathione–agarose beads 2 h at 4 °C; 25 mM Tris–HCl pH 7.5, 150 mM NaCl, 1 mM EDTA, 0.5% NP-40, 0.55% Triton X-100, 5% glycerol, 1 mM DTT; four washes; Western blot; both purified. For orientation: A western blot detects proteins with antibodies after separation by electrophoresis.

Results are given in words; binding and its absence hold for the method and conditions named. Some entries that bind do so weakly or less than the wild type.

B1: IKK1^10–667 (domain or fragment, UniProt O15111 10-667)
chain: GAGGPWEMRERLGTGGFGNVCLYQHRELDLKIAIKSCRLELSTKNRERWCHEIQIMKKLNHANVVKACDVPEELNILIHDVPLLAMEYCSGGDLRKLLNKPENCCGLKESQILSLLSDIGSGIRYLHENKIIHRDLKPENIVLQDVGGKIIHKIIDLGYAKDVDQGSLCTSFVGTLQYLAPELFENKPYTATVDYWSFGTMVFECIAGYRPFLHHLQPFTWHEKIKKKDPKCIFACEEMSGEVRFSSHLPQPNSLCSLVVEPMENWLQLMLNWDPQQRGGPVDLTLKQPRCFVLMDHILNLKIVHILNMTSAKIISFLLPPDESLHSLQSRIERETGINTGSQELLSETGISLDPRKPASQCVLDGVRGCDSYMVYLFDKSKTVYEGPFASRSLSDCVNYIVQDSKIQLPIIQLRKVWAEAVHYVSGLKEDYSRLFQGQRAAMLSLLRYNANLTKMKNTLISASQQLKAKLEFFHKSIQLDLERYSEQMTYGISSEKMLKAWKEMEEKAIHYAEVGVIGYLEDQIMSLHAEIMELQKSPYGRRQGDLMESLEQRAIDLYKQLKHRPSDHSYSDSTEMVKIIVHTVQSQDRVLKELFGHLSKLLGCKQKIIDLLPKVEVALSNIKEADNTVMFMQGKRQKEIWHLLKIACTQSSARSLV
For the molecule B1, the binding result is “binds weakly”.
